doi:10.1101/426734
These are yes or no findings as the source states them, for the method shown. In cells and extracts the contact can be indirect. Binding calls can cover weak binding; strength is not graded here.

Protein sequences, listed by entry. Tags and fused reporters are not part of them. Lines headed by an entry give the natural chain unless they say otherwise; changes in a name come on top.
UniProt Q9EPR5: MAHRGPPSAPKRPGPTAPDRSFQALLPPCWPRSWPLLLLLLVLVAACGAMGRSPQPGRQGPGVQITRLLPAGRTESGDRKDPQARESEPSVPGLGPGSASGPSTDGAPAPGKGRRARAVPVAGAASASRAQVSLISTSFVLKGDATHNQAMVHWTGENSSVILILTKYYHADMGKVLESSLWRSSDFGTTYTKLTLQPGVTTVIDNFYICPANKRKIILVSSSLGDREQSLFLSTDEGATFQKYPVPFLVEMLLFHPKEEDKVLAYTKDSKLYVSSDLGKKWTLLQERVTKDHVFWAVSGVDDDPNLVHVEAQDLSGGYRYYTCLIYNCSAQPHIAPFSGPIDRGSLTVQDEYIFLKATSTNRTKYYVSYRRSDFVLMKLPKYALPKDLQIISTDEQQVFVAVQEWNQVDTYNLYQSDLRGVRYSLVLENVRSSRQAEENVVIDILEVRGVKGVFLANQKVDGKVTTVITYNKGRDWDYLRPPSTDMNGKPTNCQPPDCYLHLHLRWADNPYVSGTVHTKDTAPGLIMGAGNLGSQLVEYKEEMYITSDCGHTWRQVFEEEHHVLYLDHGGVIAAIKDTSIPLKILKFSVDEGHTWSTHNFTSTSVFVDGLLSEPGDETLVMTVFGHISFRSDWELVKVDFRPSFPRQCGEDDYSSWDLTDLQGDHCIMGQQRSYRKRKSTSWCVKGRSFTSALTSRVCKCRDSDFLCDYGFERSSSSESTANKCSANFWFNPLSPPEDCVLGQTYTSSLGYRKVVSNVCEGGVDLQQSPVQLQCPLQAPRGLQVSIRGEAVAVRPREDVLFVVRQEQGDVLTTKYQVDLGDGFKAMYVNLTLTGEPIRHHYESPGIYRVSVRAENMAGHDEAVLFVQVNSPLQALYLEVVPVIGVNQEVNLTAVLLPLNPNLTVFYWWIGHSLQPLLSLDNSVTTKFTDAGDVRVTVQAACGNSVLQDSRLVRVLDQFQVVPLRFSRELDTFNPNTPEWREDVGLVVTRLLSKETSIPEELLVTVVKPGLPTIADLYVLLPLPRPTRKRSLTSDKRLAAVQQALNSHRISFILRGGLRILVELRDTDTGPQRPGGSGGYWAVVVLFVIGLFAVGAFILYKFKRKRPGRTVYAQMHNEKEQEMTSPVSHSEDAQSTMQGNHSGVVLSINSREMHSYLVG

Experiments:
[1] = biological target: murine SorCS2 tagged with GFP at the C-terminus (mouse) (UniProt Q9EPR5); test: co-IP
[2] = biological target: endogenous SorCS2 (mouse hippocampus) (mouse (endogenous in mouse hippocampus)); test: co-IP

| binding [1] | binding [2] | Binder |
| --- | --- | --- |
| binds | – | rat EAAT3 (protein, UniProt P51907 1-523) MGKPTSSGCDWRRFLRNHWLLLSTVAAVVLGIVVGVLVRGHSELSNLDKFYFAFPGEILMRMLKLVILPLIISSMITGVAALDSNVSGKIGLRAVVYYFSTTVIAVILGIVLVVSIKPGVTQKVNEINRTGKTPEVSTVDAMLDLIRNMFPENLVQACFQQYKTKREEVKPASDPGGNQTEVSVTTAMTTMSENKTKEYKIVGLYSDGINVLGLIIFCLVFGLVIGKMGEKGQILVDFFNALSDATMKIVQIIMCYMPIGILFLIAGKIIEVEDWEIFRKLGLYMATVLSGLAIHSLVVLPLIYFIVVRKNPFRFALGMAQALLTALMISSSSATLPVTFRCAEEKNHVDKRITRFVLPVGATINMDGTALYEAVAAVFIAQLNGMDLSIGQIITISITATAASIGAAGVPQAGLVTMVIVLSAVGLPAEDVTLIIAVDWLLDRFRTMVNVLGDAFGTGIVEKLSKKELEQVDVSSEVNIVNPFALEPTILDNEDSDTKKSYVNGGFSVDKSDTISFTQTSQF |
| – | binds | endogenous EAAT3 (mouse) (protein, UniProt P51906 1-523) MGKPTSSGCDWRRFLRNHWLLLSTVAAVVLGIVLGVVVRGHSELSNLDKFYFAFPGEILMRMLKLVILPLIVSSMITGVAALDSNVSGKIGLRAVVYYFSTTVIAVILGIVLVVSIKPGVTQKVNDINRTGKTPEVSTMDAMLDLIRNMFPENLVQACFQQYKTKREEVKPVGDPGGNATEVSVTTAMTTMSENKTKEYKIVGLYSDGINVLGLIIFCLVFGLVIGKMGEKGQILVDFFNALSDATMKIVQIIMCYMPIGILFLIAGKIIEVEDWEIFRKLGLYMATVLSGLAIHSLIVLPLLYFIVVRKNPFRFALGMAQALLTALMISSSSATLPVTFRCAEEKNQVDKRITRFVLPVGATINMDGTALYEAVAAVFIAQLNGLDLSIGQIVTISITATAASIGAAGVPQAGLVTMVIVLSAVGLPAEDVTLIIAVDWLLDRFRTMVNVLGDAFGTGIVEKLSKKELEQMDVSSEVNIVNPFALEPTTLDNEDSDTKKSYVNGGFAVDKSDTISFTQTSQF |
| – | no binding | JWA (protein, UniProt Q8R5J9 1-188) MDVNLAPLRAWDDFFPGSDRFARPDFRDISKWNNRVVSNLLYYQTNYLVVAAMMISVVGFLSPFNMILGGVIVVLVFMGFVWAAHNKDILRRMKKQYPTAFVMVVMLASYFLISMFGGVMVFVFGITLPLLLMFIHASLRLRNLKNKLENKMEGIGLKKTPMGIILDALEQQEDNINKFADYISKARE |
